Data on two substances can be found in article PMC8463608.

By UniProt entry, the sequences of proteins in these tests, tags left out. Residues count along the entry.
UniProt Q15848, residues 19-244: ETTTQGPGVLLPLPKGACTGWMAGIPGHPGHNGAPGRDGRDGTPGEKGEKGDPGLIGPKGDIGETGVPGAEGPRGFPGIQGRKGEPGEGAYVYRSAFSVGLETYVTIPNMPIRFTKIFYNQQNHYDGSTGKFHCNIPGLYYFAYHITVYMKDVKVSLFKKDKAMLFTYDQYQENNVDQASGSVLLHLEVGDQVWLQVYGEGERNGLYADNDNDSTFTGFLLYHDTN
UniProt P29844, residues 19-656: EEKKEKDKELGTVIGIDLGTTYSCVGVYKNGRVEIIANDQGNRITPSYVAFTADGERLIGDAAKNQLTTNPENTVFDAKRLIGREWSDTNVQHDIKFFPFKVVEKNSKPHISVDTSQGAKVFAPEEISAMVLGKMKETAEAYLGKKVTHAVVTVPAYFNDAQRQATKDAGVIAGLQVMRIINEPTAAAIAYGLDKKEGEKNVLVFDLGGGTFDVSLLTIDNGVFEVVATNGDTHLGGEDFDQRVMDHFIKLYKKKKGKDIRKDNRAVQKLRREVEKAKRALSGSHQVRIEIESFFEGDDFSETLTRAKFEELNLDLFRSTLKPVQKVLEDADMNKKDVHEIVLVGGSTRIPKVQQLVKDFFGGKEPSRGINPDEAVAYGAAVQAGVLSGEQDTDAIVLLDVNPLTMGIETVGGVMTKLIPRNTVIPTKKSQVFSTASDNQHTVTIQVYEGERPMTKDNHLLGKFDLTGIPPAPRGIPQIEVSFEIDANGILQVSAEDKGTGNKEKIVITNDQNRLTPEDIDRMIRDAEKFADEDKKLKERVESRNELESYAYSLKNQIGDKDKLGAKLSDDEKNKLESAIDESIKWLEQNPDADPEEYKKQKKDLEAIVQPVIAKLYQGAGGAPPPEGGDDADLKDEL

No constants are given. Whether binding was seen depends on the method and setting. Binding seen in cells or lysates may run through a third protein. Some binding calls cover weakened binding; strength is not graded here. For part of these data: Tags and fused reporters may be left off the sequences shown.

Experiment [1] addresses human adiponectin, Flag-tagged (hAdipoQ-Flag), expressed in S2 cells (human) (UniProt Q15848). Briefly: co-IP; AdipoR-Myc, hAdipoQ-Flag and/or Grp78-HA co-transfected in S2 cells (1:1:1, with pAct-GAL4); Myc, HA and Flag IPs, western blot for AdipoR-Myc or Grp78-HA.
The target in experiment [2] is T1, Drosophila adiponectin receptor, Myc-tagged (AdipoR-Myc), expressed in S2 cells (Drosophila) (UniProt Q9VCY8).
T1 sequence: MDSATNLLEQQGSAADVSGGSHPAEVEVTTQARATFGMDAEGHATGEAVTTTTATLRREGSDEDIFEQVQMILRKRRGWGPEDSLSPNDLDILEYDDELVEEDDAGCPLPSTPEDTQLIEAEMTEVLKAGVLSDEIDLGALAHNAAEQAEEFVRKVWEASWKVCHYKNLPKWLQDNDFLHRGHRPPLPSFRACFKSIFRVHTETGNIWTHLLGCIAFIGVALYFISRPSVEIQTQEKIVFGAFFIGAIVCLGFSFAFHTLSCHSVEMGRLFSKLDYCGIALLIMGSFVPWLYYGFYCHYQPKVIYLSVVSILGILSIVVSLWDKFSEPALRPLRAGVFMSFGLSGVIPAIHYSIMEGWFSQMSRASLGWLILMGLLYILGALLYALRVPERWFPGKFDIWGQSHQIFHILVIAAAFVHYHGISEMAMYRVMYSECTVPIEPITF
Described as above.

Regarding “glucose-regulated protein 78 (Grp78), HA-tagged, expressed in S2 cells (from UniProt P29844 19-656)”, the binding entry in experiment [1] and in experiment [2] was “binds” each time.
As to “human adiponectin, Flag-tagged (hAdipoQ-Flag), expressed in S2 cells (from UniProt Q15848 19-244) (ligand)”, the binding result in experiment [2] is reported as “binds”.
